Here are results for two sequences from US20100167274.

By UniProt entry, the sequences of proteins in these tests, tags left out. Where a name states a change or a piece, a line headed by the entry shows the natural chain unless it says otherwise.
UniProt P0A7G6: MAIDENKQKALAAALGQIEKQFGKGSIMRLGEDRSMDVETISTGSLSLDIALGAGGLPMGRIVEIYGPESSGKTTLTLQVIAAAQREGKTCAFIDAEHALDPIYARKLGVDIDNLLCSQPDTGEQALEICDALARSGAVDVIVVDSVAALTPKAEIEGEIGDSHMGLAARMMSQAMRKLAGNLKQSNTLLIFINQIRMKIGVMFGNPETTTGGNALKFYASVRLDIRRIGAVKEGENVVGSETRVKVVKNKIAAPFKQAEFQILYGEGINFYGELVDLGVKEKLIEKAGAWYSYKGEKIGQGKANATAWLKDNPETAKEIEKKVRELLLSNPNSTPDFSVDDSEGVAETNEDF

For some assays here: The comparison behind a weaker result is the experiment's own reference, which may not be listed here. For some assays here: Construct, isoform or probe ends are uncertain for at least one entry.

For data set [1], the target named is RecA (UniProt P0A7G6). The data set can be described thus: activity assay. As to conditions: FRET strand exchange; large reduction over whole RecA range; 2 mM ATP; purified recombinant protein; protein details: New England Biolabs; single-stranded DNA; variant of ssDNA invader, full homology (FIG. 2a-b).
In data set [2] the target is RecA (UniProt P0A7G6). Kind of data set: binding assay. As to conditions: RecA polymerizes on overhang; exchange with non-denatured target duplex SEQ 31/32; reduced by target SNPs at positions 6 and beyond; purified recombinant protein; protein details: New England Biolabs; label: Cy5 5' on SEQ 29, TAMRA 3' on SEQ 30.

Turning to “TAGACCTGTTGGTTGCAACAAATTCATAAGCAATGGTTTTTTATAATGCAGTGAA [ssDNA invader, three mismatches]”, in data set [1], the “activity on this sequence” value is “less active”.
Turning to “TAGACATCTCCTGTTCGTTGCAACAAATTGATAAGCAATGCTTTTTTATAATGCATGCAAGTGAAACCT / CGAATTCAATTTGTTGCAACGAACAGGTCTA [labeled probe 69-mer/31-mer with full homology target duplex]”, the binding result in data set [2] is listed as “binds”.
